The text below walks through data of patent publication US12024498B2, “Radical compounds and methods of using thereof” (OHIO STATE INNOVATION FOUNDATION, priority 2017, dated 2024).

A short description of this data set: DNP-enhanced 1H-13C CP-MAS solid-state NMR of proline samples doped with biradical polarizing agent. The following applies: for εAbs (absolute enhancement, doped vs undoped sample) / εDNP (microwave on/off signal enhancement) / τDNP (DNP build-up time) / time-adjusted absolute enhancement, εAbs-time: at optimal biradical concentration; for εAbs (absolute enhancement, doped vs undoped sample) / εDNP (microwave on/off signal enhancement) / τDNP (DNP build-up time): 600 MHz 1H, 8 kHz MAS, ~100 K; for time-adjusted absolute enhancement, εAbs-time: calculated with equation 3; for εAbs / εDNP: discussion of optimal samples; for εDNP, greatest value of the concentration series: maximum over biradical concentrations 5-30 mM (ATT at 15 mM); for relative intensity in 10-minute 1H-13C CP experiments: recycle delay 1.26×τDNP, optimal concentrations, scaled with respect to AMUPOL=18.0.

Regarding `CC1(C)CC(N)(C(=O)NC2(C(=O)O)CC(C)(C)N([O])C(C)(C)C2)CC(C)(C)N1[O]` [TT, TOAC-TOAC], the “factor by which εAbs is smaller than εDNP (depolarizing effect)” value was “factor of two”; the τDNP is on record as 1.60 s; the “εAbs (absolute enhancement, doped vs undoped sample)” value is given as 11.7; the “εDNP (microwave on/off signal enhancement)” value was determined as 24.6. The “τDNP (DNP build-up time)” value was 2.07 s; the “time-adjusted absolute enhancement, εAbs-time” value is 7.3; the εAbs is 12; the εDNP is recorded as 25. The “εDNP, greatest value of the concentration series” value (“εDNP, greatest value” below) is listed as 25. In addition, the opt. biradical conc. (determined from εAbs-time profiles, concentration by EPR) stood at 9.33 mM.
As for TOAC-Ser-TOAC [TST], the “εAbs (absolute enhancement, doped vs undoped sample)” value came to 10.6; the “εDNP (microwave on/off signal enhancement)” value is 25.3; the “τDNP (DNP build-up time)” value amounted to 3.90 s; the “time-adjusted absolute enhancement, εAbs-time” value was 4.8. In addition, the “εDNP, greatest value” value worked out at 25 and the “relative intensity in 10-minute 1H-13C CP experiments” value came to 4.9. The “εAbs-time, maximum of profile” value (as a function of biradical concentration (TST at 14 mM)) stood at 4.8.
With TOAC-TOAC-Ser [TTS], the “factor by which εAbs is smaller than εDNP (depolarizing effect)” value is reported as “factor of two”; the “εAbs (absolute enhancement, doped vs undoped sample)” value was 18.5; the “τDNP (DNP build-up time)” value amounted to 2.59 s; the “time-adjusted absolute enhancement, εAbs-time” value is 10.3. For the same molecule, the εAbs is 19. In addition, the “εAbs, largest value of the concentration series” value (maximum over biradical concentrations 5-30 mM (TTS at 6 mM)) was found to be 21. Besides, the εAbs-time (optimal concentration) turned out to be 10.3 s^1/2.
For the molecule acetyl-TOAC-TOAC [ATT], the “εAbs (absolute enhancement, doped vs undoped sample)” value is listed as 13.0; the “εDNP (microwave on/off signal enhancement)” value is recorded as 47.7; the “τDNP (DNP build-up time)” value came out at 2.58 s; the “time-adjusted absolute enhancement, εAbs-time” value is 7.2. The εAbs worked out at 13; the εDNP was found to be 48; the “εDNP, greatest value” value turned out to be 48; the “relative intensity in 10-minute 1H-13C CP experiments” value is 9.0.
